For one assay, the target named is HSF1 (UniProt Q00613). In words: DAPPL (digital affinity profiling via proximity ligation, sequencing). Particulars: 10 mM Tris-HCl pH 7.5, 50 mM NaCl, 1 mM DTT, 4% glycerol, room temperature, 30 min; GST-TFs on glutathione beads, 16-mer random dsDNA library, 0.1% …; high values mean tight binding; double strand, one strand shown; scale: fold enrichment (6-mer frequency, TF over GST control).

The chains behind the UniProt entries cited, without tags or fusion partners. Where a name states a change or a piece, a line headed by the entry shows the natural chain unless it says otherwise.
UniProt Q00613: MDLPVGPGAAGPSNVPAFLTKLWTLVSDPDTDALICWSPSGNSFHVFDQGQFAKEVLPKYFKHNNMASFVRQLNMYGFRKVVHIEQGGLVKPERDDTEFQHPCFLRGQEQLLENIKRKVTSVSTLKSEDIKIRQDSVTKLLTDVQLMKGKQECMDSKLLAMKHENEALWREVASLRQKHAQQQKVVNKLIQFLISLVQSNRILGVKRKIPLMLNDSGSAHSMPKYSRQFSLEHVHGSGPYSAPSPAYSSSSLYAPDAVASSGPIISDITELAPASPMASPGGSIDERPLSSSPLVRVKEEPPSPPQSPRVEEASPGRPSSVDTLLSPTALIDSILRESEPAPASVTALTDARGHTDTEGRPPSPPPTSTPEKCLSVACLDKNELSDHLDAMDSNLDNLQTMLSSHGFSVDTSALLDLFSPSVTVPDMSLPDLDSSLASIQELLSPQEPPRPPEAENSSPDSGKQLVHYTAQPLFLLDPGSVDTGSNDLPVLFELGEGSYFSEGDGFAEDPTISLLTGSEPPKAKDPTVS

In another assay the target is T1, ELF2 (UniProt Q15723).
T1 sequence: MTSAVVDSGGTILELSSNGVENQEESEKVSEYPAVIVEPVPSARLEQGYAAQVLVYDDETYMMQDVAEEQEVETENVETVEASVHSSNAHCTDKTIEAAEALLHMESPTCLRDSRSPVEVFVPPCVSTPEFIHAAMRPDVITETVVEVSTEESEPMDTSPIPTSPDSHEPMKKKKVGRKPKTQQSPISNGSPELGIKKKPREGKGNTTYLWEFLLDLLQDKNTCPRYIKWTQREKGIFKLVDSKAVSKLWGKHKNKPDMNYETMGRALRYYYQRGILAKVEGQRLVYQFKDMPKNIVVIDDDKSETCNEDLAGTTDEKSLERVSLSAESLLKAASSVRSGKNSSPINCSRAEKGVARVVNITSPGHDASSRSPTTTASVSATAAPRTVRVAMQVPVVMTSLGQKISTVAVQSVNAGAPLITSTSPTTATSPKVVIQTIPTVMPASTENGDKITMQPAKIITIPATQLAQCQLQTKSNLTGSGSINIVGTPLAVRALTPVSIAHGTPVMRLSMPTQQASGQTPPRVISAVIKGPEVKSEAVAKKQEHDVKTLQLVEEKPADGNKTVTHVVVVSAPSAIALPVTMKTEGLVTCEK
The description is as above. Conditions: 10 mM Tris-HCl pH 7.5, 50 mM NaCl, 1 mM DTT, 4% glycerol, room temperature, 30 min; GST-TFs on glutathione beads, 16-mer random dsDNA library, 0.1% …; high values mean tight binding; double strand, one strand shown; scale: fold enrichment (6-mer frequency, TF over GST control).

Only a part is listed here, and it is no random draw. For some of these results: At the low end of the ranking the order means little. The list shows a part of the results. For some of these results: The exact form of the protein is not confirmed.

Turning to GGTAGT, the binding signal with HSF1 is 0.528; with ELF2 it was 0.815.
For CGCATC, in that order: 0.609 and 0.911.
For CCACGG the same measures were 0.805 and 0.877.
For GGACTA the same measures were 0.935 and 0.822.
Regarding ACCGCG, the binding signal was 0.701 in the assay with HSF1 and 0.851 with ELF2.
For AGTGAG, in that order: 0.209 and 0.258.
For GTCGAT, in that order: 0.699 and 0.663.
For AGAGAG the same measures were 0.626 and 0.489.
CGAGAC: the binding signal with HSF1 amounted to 0.679; with ELF2, 0.515.
In the case of GCGTGG, the binding signal in the assay with HSF1 is 0.463; with ELF2, 0.525.
For GCAGGC, in that order: 0.528 and 0.711.
For GCAACG the same measures were 0.79 and 0.949.
For TGGAGA, in that order: 0.582 and 0.395.
In the case of GCCAGG, the binding signal in the assay with HSF1 is 0.373; in the assay with ELF2, 0.468.
With AGCCCG, the binding signal with HSF1 was found to be 0.808; with ELF2, 0.873.
For GGGCGA the same measures were 0.763 and 0.741.
For CGGGCA, in that order: 0.625 and 0.731.
Regarding ACACAG, the binding signal with HSF1 worked out at 0.808; in the assay with ELF2, 0.951.
For CAGAGC the same measures were 0.748 and 0.797.
For AGCGTG the same measures were 0.339 and 0.381.
For AGCGTT, the binding signal in the assay with HSF1 amounted to 0.903; in the assay with ELF2, 0.927.
As for CGTAGT, the binding signal with HSF1 was 0.673; with ELF2, 0.793.
Consider ATGAGA, for which the binding signal in the assay with HSF1 turned out to be 0.927; with ELF2 it was 0.788.
For AGACTG, in that order: 0.561 and 0.486.
Take TAGGAC: the values for the binding signal with HSF1 and with ELF2 were 0.877 and 0.839, respectively.
As to CAGTAA, the binding signal was 0.823 with HSF1 and 0.718 with ELF2.
Turning to GACAGA, the values for the binding signal with HSF1 and in the assay with ELF2 were 0.698 and 0.62, respectively.
For AAGAGC, in that order: 0.865 and 0.874.
For AGTTCG the same measures were 0.844 and 0.714.
For CGTAGA, in that order: 0.836 and 0.693.
For GCTGGG, the binding signal in the assay with HSF1 amounted to 0.672; with ELF2 it was 0.74.
For GGCGTC, in that order: 0.605 and 0.777.
For GGGAAT the same measures were 1.09 and 0.818.
For CGTGGC, in that order: 0.727 and 0.864.
In the case of GTAAAG, the binding signal with HSF1 is 0.942; with ELF2, 0.87.
For CAAGAG, in that order: 0.759 and 0.7.
For GTAAGT, in that order: 0.751 and 0.752.
For the sequence CTGAGT, the binding signal with HSF1 worked out at 0.554; in the assay with ELF2, 0.57.
For CCAAGG, in that order: 0.834 and 0.875.
For GTACGG, in that order: 0.651 and 0.878.
For TGAGAA the same measures were 0.945 and 0.678.
